Measurements reported in patent publication US20070264660A1.
Results are given in words; binding and its absence hold for the method and conditions named. Binding seen in cells or lysates may run through a third protein. Some entries that bind do so weakly or less than the wild type.

What was measured:
[1] = target: T1, PCNA (clamp, proliferating cell nuclear antigen) from Pyrococcus horikoshii (Pyrococcus horikoshii) (UniProt O58398); assay: pull-down of PCNA through the histidine tag of RFC complex on nickel resin, with or without ATP, read by SDS-PAGE
T1 sequence: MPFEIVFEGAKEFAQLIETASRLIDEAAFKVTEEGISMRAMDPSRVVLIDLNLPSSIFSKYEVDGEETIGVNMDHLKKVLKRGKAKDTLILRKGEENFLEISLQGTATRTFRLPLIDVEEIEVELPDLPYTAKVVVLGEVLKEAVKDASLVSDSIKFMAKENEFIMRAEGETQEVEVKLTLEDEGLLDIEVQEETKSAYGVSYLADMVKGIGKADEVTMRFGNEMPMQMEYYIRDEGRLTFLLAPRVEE

[2] = target: T2, small subunit of the clamp loader (RFC) without intein sequence from Pyrococcus horikoshii (Pyrococcus horikoshii) (UniProt O57852); assay: co-purification through the histidine tag of the large subunit (heparin, nickel resin, gel filtration), read by SDS-PAGE band intensities
T2 sequence: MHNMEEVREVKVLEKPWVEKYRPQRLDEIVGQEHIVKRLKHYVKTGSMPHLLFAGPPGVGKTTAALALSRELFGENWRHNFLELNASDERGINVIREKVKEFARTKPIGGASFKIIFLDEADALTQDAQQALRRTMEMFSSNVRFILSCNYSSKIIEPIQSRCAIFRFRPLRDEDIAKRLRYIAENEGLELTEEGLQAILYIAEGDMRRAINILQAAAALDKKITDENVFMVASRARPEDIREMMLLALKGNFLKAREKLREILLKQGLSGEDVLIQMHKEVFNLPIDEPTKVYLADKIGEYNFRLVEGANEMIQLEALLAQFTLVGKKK

B1: RFC complex (clamp loader, replication factor) from Pyrococcus horikoshii (protein, not shown: small tags and cut ends)
chain 1: MPDVPWIEKYRPRKLSEIVNQEQALEKVRAWIESWLHGNPPKKKALLLAGPPGSGKTTTVYALAHEYNFEVIELNASDERTYNKIARYVQAAYTMDIMGKRRKIIFLDEADNIEPSGAPEIAKLIDKARNPIIMAANHYWEVPKEIRDRAELVEYKRLNQRDVISALVRILKREGITVPKEILTEIAKRSSGDLRAAINDLQTIVAGGYEDAKYVLAYRDVEKTVFQSLGMVFSSDNAKRAKLALMNLDMSPDEFLLWVDENIPHMYLKPEEMARAYEAISRADIYLGRAQRTGNYSLWKYAIDMMTAGVAVAGTKKKGFAKFYPPNTLKMLAESKEERSIRDSIIKKIMKEMHMSKLEALETMKILRTIFENNLDLAAHFTVFLELTEKEVEFLAGKEKAGTIWGKTLSIRRRIKETEKIEEKAVEEKVEEEEAEEEEEEERKEEEKPKAEKKKGKQVTLFDFIKKN
chain 2: MHNMEEVREVKVLEKPWVEKYRPQRLDEIVGQEHIVKRLKHYVKTGSMPHLLFAGPPGVGKTTAALALSRELFGENWRHNFLELNASDERGINVIREKVKEFARTKPIGGASFKIIFLDEADALTQDAQQALRRTMEMFSSNVRFILSCNYSSKIIEPIQSRCAIFRFRPLRDEDIAKRLRYIAENEGLELTEEGLQAILYIAEGDMRRAINILQAAAALDKKITDENVFMVASRARPEDIREMMLLALKGNFLKAREKLREILLKQGLSGEDVLIQMHKEVFNLPIDEPTKVYLADKIGEYNFRLVEGANEMIQLEALLAQFTLVGKKK
[1]
  binding: binds

B2: large subunit of the clamp loader (RFC) from Pyrococcus horikoshii (protein, not shown: small tags and cut ends)
chain: MPDVPWIEKYRPRKLSEIVNQEQALEKVRAWIESWLHGNPPKKKALLLAGPPGSGKTTTVYALAHEYNFEVIELNASDERTYNKIARYVQAAYTMDIMGKRRKIIFLDEADNIEPSGAPEIAKLIDKARNPIIMAANHYWEVPKEIRDRAELVEYKRLNQRDVISALVRILKREGITVPKEILTEIAKRSSGDLRAAINDLQTIVAGGYEDAKYVLAYRDVEKTVFQSLGMVFSSDNAKRAKLALMNLDMSPDEFLLWVDENIPHMYLKPEEMARAYEAISRADIYLGRAQRTGNYSLWKYAIDMMTAGVAVAGTKKKGFAKFYPPNTLKMLAESKEERSIRDSIIKKIMKEMHMSKLEALETMKILRTIFENNLDLAAHFTVFLELTEKEVEFLAGKEKAGTIWGKTLSIRRRIKETEKIEEKAVEEKVEEEEAEEEEEEERKEEEKPKAEKKKGKQVTLFDFIKKN
[2]
  binding: binds
